Laboratory results reported in patent US20040176422A1, “Heteroarylheteroalkylamine derivatives and their use as inhibitors of nitric oxide synthase” (priority 2001, published 2004).
Structures can show the parent of a compound that is named as a salt. Some entries share one result that the patent states for a list of compounds. For some assays here: For at least one compound, name, drawing or mass did not settle the structure.

What was measured:
[1] = target: T1, recombinant human iNOS (Homo sapiens, UniProt P35228); assay: Screen 2: recombinant human NO synthase inhibition, L-[3H]citrulline formation; assay type: biochemical; conditions: recombinant human iNOS expressed in E. coli; 60 min pre-incubation with NADPH; 3 μM [3H]arginine; read-out: IC50 against the iNOS enzyme
T1 construct: made in house; host or cells: E. coli (lysate in Hepes buffer with co-factors, lysozyme and CHAPS)

[2] = target: T2, human form of induced nitric oxide synthase in DLD-1 cells (Homo sapiens, UniProt P35228); assay: Screen 3: nitrite accumulation (Griess) in cytokine-induced DLD-1 cells; assay type: cell-based; conditions: DLD-1 cells induced with gamma-IFN, TNF-alpha, IL-6, IL-1-beta; 5 hours with compound; read-out: IC50 (inhibition of nitrite accumulation)
T2 construct: Nitric oxide synthase was induced in cells by addition of medium containing human recombinant gamma-IFN; endogenous in cells; host or cells: DLD-1 human colorectal carcinoma cells (ECACC 90102540), induced with gamma-IFN, TNF-alpha, IL-6 and IL-1-beta

[3] = target: T3, nitric oxide synthase (induced, from murine macrophage cell line J774A-1) (Mus musculus, UniProt P29477); assay: Screen 1: nitric oxide synthase inhibition, 3H-L-arginine to 3H-L-citrulline conversion, lysate of induced J774A-1 cells; assay type: biochemical; conditions: J774A-1 cell lysate after LPS/IFNg induction; 1 hour at room temperature; read-out: IC50 (concentration of drug substance which gives 50% enzyme inhibition in the assay)
T3 construct: The reaction is started by adding 50 μl of cell lysate (prepared as above); endogenous in cells; host or cells: J774A-1 murine macrophage cell line, induced with LPS and IFNg; crude cell lysate

Row | Structure (SMILES) | IC50 [1] | IC50 [2] | IC50 [3]
1 | CCCN(CCO)CC[C@@H](Oc1nc(C(F)(F)F)ccc1C#N)c1ccccc1 [Example 35, 2-[[(1R)-3-[(2-Hydroxyethyl)propylamino]-1-phenylpropyl]oxy]-6-(trifluoromethyl) 3-pyridinecarbonitrile (E)-butanedioate] | < 10 µM | < 100 µM | < 10 µM
2 | N#Cc1ccc(CF)nc1S[C@H](CCN)c1ccccc1 [Example 3, 2-[[(1R)-3-Amino-1-phenylpropyl]thio]-6-(fluoromethyl)-3-pyridinecarbonitrile Ethanedioate] | < 10 µM | < 100 µM | < 10 µM
3 | COc1cc(SC(CCCN)c2ccno2)c(C#N)cn1 (centres unmarked) [Example 44, 4-[[4-Amino-1-(5-isoxazolyl)butyl]thio]-6-methoxy-3-pyridinecarbonitrile Hydrochloride] | < 10 µM | < 100 µM | < 10 µM
4 | N#Cc1cnc(N)cc1S[C@H](CCN)c1ccno1.O=C(O)/C=C/C(=O)O [Example 14, 6-Amino-4-[[(1R)-3-amino-1-(5-isoxazolyl)propyl]thio]-3-pyridinecarbonitrile (E)-butenedioate] | < 10 µM | < 100 µM | < 10 µM
5 | Cl.N#Cc1ccc(C(F)(F)F)nc1O[C@H](CCN)c1nccs1 [Example 12, 2-[[(1R)-3-Amino-1-(2-thiazolyl)propyl]oxy]-6-(trifluoromethyl)-3-pyridinecarbonitrile Hydrochloride] | < 10 µM | < 100 µM | < 10 µM
6 | N#Cc1ccc(C(F)(F)F)nc1OC(CCCN)c1ccno1.O=C(O)/C=C/C(=O)O (centres unmarked) [Example 42, 2-[4-Amino-1-(5-isoxazolyl)butoxy]-6-(trifluoromethyl)-3-pyridinecarbonitrile (E)-butenedioate] | < 10 µM | < 100 µM | < 10 µM
7 | CCCN(C)CC[C@@H](Oc1nc(C(F)(F)F)ccc1C#N)c1ccccc1 [Example 37, 2-[[(1R)-3-(Methylpropylamino)-1-phenylpropyl]oxy]-6-(trifluoromethyl)-3-pyridinecarbonitrile (E)-butanedioate] | < 10 µM | < 100 µM | < 10 µM
8 | N#Cc1ccc(C(F)(F)F)nc1SC(CCN)c1ccns1 (centres unmarked) [Example 10, 2-[[3-Amino-1-(5-isothiazolyl)propyl]thio]-6-(trifluoromethyl)-3-pyridinecarbonitrile Ethanedioate] | < 10 µM | < 100 µM | < 10 µM
9 | Cc1ccc(C#N)c(OC(CCN)c2ccns2)n1.O=C(O)C(=O)O (centres unmarked) [Example 22, 2-[3-Amino-1-(5-isothiazolyl)propoxy]-6-methyl-3-pyridinecarbonitrile Ethanedioate] | < 10 µM | < 100 µM | < 10 µM
10 | CNCC[C@@H](Sc1nc(C)c(F)cc1C#N)c1ccccc1 [Example 32, 5-Fluoro-6-methyl-2-[[(1 R)-3-(methylamino)-1-phenylpropyl]thio]-3-pyridinecarbonitrile, Hydrochloride] | < 10 µM | < 100 µM | < 10 µM
11 | CNC(=O)CCNCC[C@@H](Oc1nc(C(F)(F)F)ccc1C#N)c1ccsc1 [Example 9, 3-[[(3R)-3-[[3-Cyano-6-(trifluoromethyl)-2-pyridinyl]oxy]-3-(3-thienyl)propyl]amino]-N-methyl Propanamide Ethanedioate] | < 10 µM | < 100 µM | < 10 µM
12 | CNCCC(Oc1nc(C)ccc1C#N)c1scnc1Cl (centres unmarked) [Example 29, 2-[1-(4-Chloro-1,3-thiazol-5-yl)-3-(methylamino)propoxy]-6-methylnicotinonitrile Ethanedioate] | < 10 µM | < 100 µM | < 10 µM
13 | N#Cc1ccc(C(F)(F)F)nc1O[C@H](CCNCCc1ccc(O)cc1)c1ccccc1 [Example 41, 2-[[(1R)-3-[[2-(4-Hydroxyphenyl)ethyl]amino]-1-phenylpropyl]oxy]-6-(trifluoromethyl)-3-pyridinecarbonitrile] | < 10 µM | < 100 µM | < 10 µM
14 | N#Cc1ccc(C(F)(F)F)nc1O[C@H](CCNCCCO)c1ccsc1 [Example 8, 2-[[(1R)-3-[(3-Hydroxypropyl)amino]-1-(3-thienyl)propyl]oxy]-6-(trifluoromethyl)-3-pyridinecarbonitrile Ethanedioate] | < 10 µM | < 100 µM | < 10 µM
15 | Cc1ccc(C#N)c(S[C@H](CCN)c2ccno2)n1 [Example 6, 2-[[(1R)-3-Amino-1-(5-isoxazolyl)propyl]thio-6-methyl-3-pyridinecarbonitrile Ethanedioate] | < 10 µM | < 100 µM | < 10 µM
16 | CNCC[C@@H](Oc1nc(C(F)(F)F)ccc1C#N)c1ccccc1 [Example 1, 2-[[(1R)-3-(Methylamino)-1-phenylpropyl]oxy]-6-(trifluoromethyl)-3-pyridinecarbonitrile Hydrochloride] | < 10 µM | < 100 µM | < 10 µM
17 | COc1cc(O[C@H](CCN)c2ccon2)c(C#N)cn1.O=C(O)C(=O)O [Example 25, 4-[[(1R)-3-Amino-1-(3-isoxazolyl)propyl]oxy]-6-methoxy-3-pyridinecarbonitrile Ethanedioate] | < 10 µM | < 100 µM | < 10 µM
18 | CN(C)CC[C@@H](Oc1nc(C(F)(F)F)ccc1C#N)c1ccno1 [Example 13, (R)-2-(3-Dimethylamino-1-isoxazol-5-yl-propoxy)-6-trifluoromethyl-nicotinonitrile Ethanedioate] | < 10 µM | < 100 µM | < 10 µM
19 | N#Cc1ccc(C(F)(F)F)nc1O[C@H](CCNCc1ccccc1)c1ccccc1 [Example 39, 2-[[(1R)-1-Phenyl-3-[(phenylmethyl)amino]propyl]oxy]-6-(trifluoromethyl)-3-pyridinecarbonitrile (E)-butanedioate] | < 10 µM | < 100 µM | < 10 µM
20 | Cc1cc([C@@H](CCN)Oc2nc(C(F)(F)F)ccc2C#N)no1 [Example 24, 2-[[(1R)-3-Amino-1-(5-methyl-3-isoxazolyl)propyl]oxy]-6-(trifluoromethyl)-3-peridinecarbonitrile Ethanedioate] | < 10 µM | < 100 µM | < 10 µM
21 | N#Cc1ccc(C(F)(F)F)nc1O[C@H](CCN)c1ccno1 [Example 5, 2-[[(1R)-3-Amino-1-(5-isoxazolyl)propyl]oxy]-6-(trifluoromethyl)-3-pyridinecarbonitrile Ethanedioate] | – | – | < 10 µM
22 | CCc1nc(S[C@H](CCNC)c2ccccc2)c(C#N)cc1F [Example 33, 6-Ethyl-5-fluoro-2-[[(1R)-3-(methylamino)-1-phenylpropyl]thio]-3-pyridinecarbonitrile, Dihydrochloride] | < 10 µM | < 100 µM | < 10 µM
23 | CNCCC(Sc1nc(C(C)=O)ccc1C#N)c1ccccc1 (centres unmarked) [Example 31, 6-Acetyl-2-[[3-(methylamino)-1-phenylpropyl]thio]-3-pyridinecarbonitrile (E)-butenedioate] | < 10 µM | < 100 µM | < 10 µM
24 | Cc1ccc(C#N)c(SC(CCN)c2nocc2C)n1.O=C(O)C(=O)O (centres unmarked) [Example 26, 2-[[3-Amino-1-(4-methyl-3-isoxazolyl)propyl]thio]-6-methyl-3-pyridinecarbonitrile Ethanedioate] | < 10 µM | < 100 µM | < 10 µM
25 | Cc1cc(SC(CCN)c2scnc2Cl)c(C#N)cn1.O=C(O)/C=C/C(=O)O (centres unmarked) [Example 28, 4-[[3-Amino-1-(4-chloro-5-thiazolyl)propyl]thio]-6-methyl-3-pyridinecarbonitrile (E)-butenedioate] | < 10 µM | < 100 µM | < 10 µM
26 | N#Cc1ccc(C(F)(F)F)nc1O[C@H](CCNCCCO)c1ccccc1 [Example 36, 2-[[(1R)-3-[(3-Hydroxypropyl)amino]-1-phenylpropyl]oxy]-6-(trifluoromethyl)-3-pyrdinecarbonitrile] | < 10 µM | < 100 µM | < 10 µM
27 | COc1cc(S[C@H](CCN)c2ccno2)c(C#N)cn1.O=C(O)/C=C/C(=O)O [Example 16, 4-[[(1R)-3-Amino-1-(5-isoxazolyl)propyl]thio]-6-methoxy-3-pyridinecarbonitrile (E)-butenedioate] | < 10 µM | < 100 µM | < 10 µM
28 | Cc1ccc(C#N)c(S[C@H](CCN)c2cc(Cl)no2)n1.O=C(O)/C=C/C(=O)O [Example 19, 2-[[(1R)-3-Amino-1-(3-chloro-5-isoxazolyl)propyl]thio]-6-methyl-3-pyridinecarbonitrile (E)-butenedioate] | < 10 µM | < 100 µM | < 10 µM
29 | C[C@H](O)CNCC[C@@H](Oc1nc(C(F)(F)F)ccc1C#N)c1ccccc1 [Example 38, 2-[[(1R)-3-[[(2S)-2-Hydroxypropyl]amino]-1-phenylpropyl]oxy]-6-(trifluoromethyl)-3-pyridinecarbonitrile (E)-butanedioate] | < 10 µM | < 100 µM | < 10 µM
30 | CN(CCO)CC[C@@H](Sc1nc(C(F)(F)F)ccc1C#N)c1ccccc1 [Example 34, 2-[[(1R)-3-[(2-Hydroxyethyl)methylamino]-1-phenylpropyl]thio]-6-(trifluoromethyl)-3-pyridinecarbonitrile (E)-butanedioate] | – | – | < 10 µM
